{"source": "patent US20020169296A1", "about": "“Linked, sequence-specific DNA-binding molecules” (priority 2000, published 2002)", "biological_target": "T1, GAGA factor (GAF) (UniProt Q08605)", "T1 sequence (looked up, limits assumed)": "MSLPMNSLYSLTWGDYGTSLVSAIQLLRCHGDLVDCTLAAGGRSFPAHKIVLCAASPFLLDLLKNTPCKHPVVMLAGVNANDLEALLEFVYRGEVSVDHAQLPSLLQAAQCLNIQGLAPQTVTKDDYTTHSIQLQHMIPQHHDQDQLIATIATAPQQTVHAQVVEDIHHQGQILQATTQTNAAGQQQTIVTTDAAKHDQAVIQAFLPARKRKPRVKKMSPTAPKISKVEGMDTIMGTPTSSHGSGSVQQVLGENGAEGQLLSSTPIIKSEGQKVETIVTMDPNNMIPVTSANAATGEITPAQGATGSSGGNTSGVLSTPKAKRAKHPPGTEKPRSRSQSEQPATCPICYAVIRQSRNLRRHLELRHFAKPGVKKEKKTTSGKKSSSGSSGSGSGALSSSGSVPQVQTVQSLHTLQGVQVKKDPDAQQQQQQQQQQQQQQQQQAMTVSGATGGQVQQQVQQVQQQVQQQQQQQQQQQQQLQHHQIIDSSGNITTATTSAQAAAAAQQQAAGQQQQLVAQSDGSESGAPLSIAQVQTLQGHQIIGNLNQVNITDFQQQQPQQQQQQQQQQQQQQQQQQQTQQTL", "assay": "footprint", "conditions": "DNase I footprint; GAF protects both the (AAGAG)2 and Ubx motifs; room temperature; label: radiolabeled (end-labeled)", "note": "The exact form of at least one protein or probe is not confirmed. Protein sequences can lack the tags named with them."}
{"sequence": "GATCCTCAGAGAGAGCGCAAGAGCGTCCCGGGAGAAGAGAAGAGAGTA / GATCTACTCTCTTCTCTTCTCCCGGGACGCTCTTGCGCTCTCTCTGAG", "values": [{"measurement": "binding result", "value": "binds"}]}
